According to doi:10.1101/2024.01.10.574969:
No constants are given. Whether binding was seen depends on the method and setting. In cells and extracts the contact can be indirect. Some results given as binding are weak or reduced against the parent protein; the word gives no strength.

Amino acid sequences for entries named in this document (tags omitted). Residues count along the entry.
UniProt Q9ULT6, residues 56-936: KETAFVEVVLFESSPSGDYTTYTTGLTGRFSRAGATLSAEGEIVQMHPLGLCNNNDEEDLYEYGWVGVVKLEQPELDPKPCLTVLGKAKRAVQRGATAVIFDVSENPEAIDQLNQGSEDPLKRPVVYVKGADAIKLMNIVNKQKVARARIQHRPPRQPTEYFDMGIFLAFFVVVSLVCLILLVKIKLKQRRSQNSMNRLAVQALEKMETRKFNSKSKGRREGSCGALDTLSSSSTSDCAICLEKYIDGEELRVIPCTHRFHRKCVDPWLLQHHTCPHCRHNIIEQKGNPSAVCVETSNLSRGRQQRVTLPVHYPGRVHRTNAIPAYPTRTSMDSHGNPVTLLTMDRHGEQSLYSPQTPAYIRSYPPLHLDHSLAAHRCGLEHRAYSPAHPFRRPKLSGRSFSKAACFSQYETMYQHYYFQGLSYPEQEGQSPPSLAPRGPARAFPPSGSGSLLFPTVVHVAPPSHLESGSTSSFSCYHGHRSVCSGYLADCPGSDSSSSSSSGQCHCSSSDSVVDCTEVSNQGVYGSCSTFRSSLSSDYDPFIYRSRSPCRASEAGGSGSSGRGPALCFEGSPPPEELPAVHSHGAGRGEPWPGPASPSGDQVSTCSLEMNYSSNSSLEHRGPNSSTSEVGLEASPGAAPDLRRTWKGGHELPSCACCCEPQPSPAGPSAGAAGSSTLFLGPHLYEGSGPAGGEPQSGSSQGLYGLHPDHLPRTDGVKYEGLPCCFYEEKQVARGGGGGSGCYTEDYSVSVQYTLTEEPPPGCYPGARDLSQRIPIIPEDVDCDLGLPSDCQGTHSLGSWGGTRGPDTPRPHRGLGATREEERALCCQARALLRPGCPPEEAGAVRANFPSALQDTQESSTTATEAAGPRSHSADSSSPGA

Assays:
[1] = biological target: Myc-tagged ZNRF3 full-length (FL) (UniProt Q9ULT6); assay: co-IP; 293T cells co-transfected with EGFR and Myc-tagged ZNRF3 constructs; lysate amounts adjusted to comparable EGFR; Myc-tag IP followed by EGFR IB
[2] = biological target: EGFR (ectopically expressed in MDA-MB-231 cells) (UniProt P00533); assay: co-IP; lysates of MDA-MB-231 cells co-infected with lentivirus carrying EGFR and Myc-tagged ZNRF3/RNF43; anti-EGFR IP; NP-40 or RIPA lysis buffer, Protein G Sepharose, overnight at 4 °C
[3] = biological target: EGFR (transfected 293T cells) (UniProt P00533); assay: co-IP; 293T cells co-transfected with EGFR and Myc-tagged ZNRF3 constructs; lysate amounts adjusted to comparable EGFR; EGFR IP followed by Myc-tag IB

“EGFR (transfected 293T cells) (from UniProt P00533 25-1210) (receptor)” was tested, and the binding [1] was “binds”.
“Myc-tagged ZNRF3 (MDA-MB-231) (from UniProt Q9ULT6 56-936) (enzyme)” was tested, and the binding [2] was “binds”.
In the case of “Myc-tagged ZNRF3 full-length (FL) (from UniProt Q9ULT6 56-936) (enzyme)”, the binding [3] is reported as “binds”.
